Source: PMC7193419
Results are given in words; binding and its absence hold for the method and conditions named. In cells and extracts the contact can be indirect. Some results given as binding are weak or reduced against the parent protein; the word gives no strength. For some assays here: Where a sequence is shown, tags or fusion partners need not be part of it.

Amino acid sequences for entries named in this document (tags omitted).
UniProt Q13535: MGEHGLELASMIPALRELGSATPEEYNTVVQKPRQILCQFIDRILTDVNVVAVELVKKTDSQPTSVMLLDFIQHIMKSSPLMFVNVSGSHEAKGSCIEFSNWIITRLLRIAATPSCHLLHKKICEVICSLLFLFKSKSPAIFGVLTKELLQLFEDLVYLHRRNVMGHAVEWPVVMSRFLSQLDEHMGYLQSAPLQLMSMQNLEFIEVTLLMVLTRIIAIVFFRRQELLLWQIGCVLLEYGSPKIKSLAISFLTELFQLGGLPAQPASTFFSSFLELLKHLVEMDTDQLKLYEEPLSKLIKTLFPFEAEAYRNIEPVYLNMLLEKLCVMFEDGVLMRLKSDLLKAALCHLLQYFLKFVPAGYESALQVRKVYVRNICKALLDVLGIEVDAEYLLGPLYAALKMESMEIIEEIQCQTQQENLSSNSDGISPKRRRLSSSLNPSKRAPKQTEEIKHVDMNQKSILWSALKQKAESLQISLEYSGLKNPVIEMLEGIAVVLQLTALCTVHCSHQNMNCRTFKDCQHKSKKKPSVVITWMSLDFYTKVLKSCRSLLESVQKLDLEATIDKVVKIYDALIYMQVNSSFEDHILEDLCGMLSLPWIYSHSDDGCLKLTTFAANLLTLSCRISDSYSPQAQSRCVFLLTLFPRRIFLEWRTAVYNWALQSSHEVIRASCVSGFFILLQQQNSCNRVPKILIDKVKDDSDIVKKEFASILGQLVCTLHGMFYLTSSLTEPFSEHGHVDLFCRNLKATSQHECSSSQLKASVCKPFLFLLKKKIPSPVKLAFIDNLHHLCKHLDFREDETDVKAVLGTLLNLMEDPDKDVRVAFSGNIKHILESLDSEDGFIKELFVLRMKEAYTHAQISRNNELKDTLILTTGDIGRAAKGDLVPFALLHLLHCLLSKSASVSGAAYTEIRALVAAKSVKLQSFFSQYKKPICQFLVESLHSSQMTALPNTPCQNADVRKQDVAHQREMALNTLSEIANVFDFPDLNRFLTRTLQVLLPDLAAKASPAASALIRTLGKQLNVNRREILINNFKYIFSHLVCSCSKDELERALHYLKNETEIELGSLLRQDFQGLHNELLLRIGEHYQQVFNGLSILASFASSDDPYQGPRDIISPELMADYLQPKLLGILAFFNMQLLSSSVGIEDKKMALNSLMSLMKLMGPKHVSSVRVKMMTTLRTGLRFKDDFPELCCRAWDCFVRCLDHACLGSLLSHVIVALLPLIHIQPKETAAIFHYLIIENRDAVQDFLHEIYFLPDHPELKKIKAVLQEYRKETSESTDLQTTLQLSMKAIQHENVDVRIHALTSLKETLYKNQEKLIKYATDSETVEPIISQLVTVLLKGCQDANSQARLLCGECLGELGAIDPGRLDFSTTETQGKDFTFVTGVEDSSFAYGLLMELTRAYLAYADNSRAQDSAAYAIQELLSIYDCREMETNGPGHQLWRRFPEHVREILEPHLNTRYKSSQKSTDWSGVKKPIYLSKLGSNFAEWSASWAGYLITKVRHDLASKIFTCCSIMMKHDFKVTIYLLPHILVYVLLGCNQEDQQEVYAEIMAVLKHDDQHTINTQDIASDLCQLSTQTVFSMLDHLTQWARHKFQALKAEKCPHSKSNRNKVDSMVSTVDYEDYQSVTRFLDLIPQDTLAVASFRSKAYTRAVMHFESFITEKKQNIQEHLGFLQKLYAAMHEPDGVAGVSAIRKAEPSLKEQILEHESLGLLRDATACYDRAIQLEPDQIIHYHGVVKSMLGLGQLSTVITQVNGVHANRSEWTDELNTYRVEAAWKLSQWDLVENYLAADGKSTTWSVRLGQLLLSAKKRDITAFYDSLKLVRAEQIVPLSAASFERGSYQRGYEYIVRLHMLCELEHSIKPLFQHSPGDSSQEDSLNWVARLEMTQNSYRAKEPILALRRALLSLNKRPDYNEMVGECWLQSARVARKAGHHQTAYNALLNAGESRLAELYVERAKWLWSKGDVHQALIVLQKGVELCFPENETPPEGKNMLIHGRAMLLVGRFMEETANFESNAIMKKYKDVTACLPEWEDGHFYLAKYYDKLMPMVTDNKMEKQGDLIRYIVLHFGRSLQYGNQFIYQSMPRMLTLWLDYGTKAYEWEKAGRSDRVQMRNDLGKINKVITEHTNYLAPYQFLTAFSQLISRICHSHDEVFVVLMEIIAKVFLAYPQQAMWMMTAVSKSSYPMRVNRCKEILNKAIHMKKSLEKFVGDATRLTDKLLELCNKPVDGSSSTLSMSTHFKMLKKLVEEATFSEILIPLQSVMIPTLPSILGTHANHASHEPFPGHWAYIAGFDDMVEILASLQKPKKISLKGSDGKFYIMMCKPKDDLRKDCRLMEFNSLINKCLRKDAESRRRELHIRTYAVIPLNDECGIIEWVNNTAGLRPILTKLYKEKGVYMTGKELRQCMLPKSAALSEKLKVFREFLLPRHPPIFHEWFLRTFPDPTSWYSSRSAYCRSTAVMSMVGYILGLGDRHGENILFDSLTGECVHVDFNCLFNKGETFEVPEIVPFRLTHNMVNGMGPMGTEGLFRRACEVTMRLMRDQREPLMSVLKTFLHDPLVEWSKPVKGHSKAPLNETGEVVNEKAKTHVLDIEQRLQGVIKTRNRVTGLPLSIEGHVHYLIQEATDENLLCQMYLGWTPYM

Experiments:
[1] = target: T1, CHK1, endogenous in HT29 and SW620 colorectal cancer cells (human (endogenous in HT29 and SW620)) (UniProt O14757); assay: co-IP; endogenous proteins; chromatin fraction of TRAF4-WT or TRAF4-knockout HT29 cells treated with 5-Fu for 24 h
T1 sequence: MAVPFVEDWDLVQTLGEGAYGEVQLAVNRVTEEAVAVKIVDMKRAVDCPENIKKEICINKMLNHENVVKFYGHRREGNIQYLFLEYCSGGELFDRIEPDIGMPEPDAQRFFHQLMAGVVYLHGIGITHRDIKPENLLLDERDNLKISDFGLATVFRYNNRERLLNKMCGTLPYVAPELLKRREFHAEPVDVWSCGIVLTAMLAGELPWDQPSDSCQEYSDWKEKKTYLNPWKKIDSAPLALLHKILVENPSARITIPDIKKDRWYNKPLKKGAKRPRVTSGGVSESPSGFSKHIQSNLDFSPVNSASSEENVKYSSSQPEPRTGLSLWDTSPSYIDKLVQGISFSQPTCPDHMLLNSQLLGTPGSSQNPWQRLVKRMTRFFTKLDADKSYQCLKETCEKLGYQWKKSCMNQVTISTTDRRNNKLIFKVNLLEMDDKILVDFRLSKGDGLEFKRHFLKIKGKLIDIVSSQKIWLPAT

[2] = target: T2, Flag-CHK1 wild type, expressed in HT29 cells (UniProt O14757); assay: co-IP; chromatin fraction of HT29 cells transfected with Flag-CHK1 or Flag-CHK1 K132R and treated with 5-Fu for 24 h
T2 sequence: T1 sequence

binding [1]: binds | binding [2]: binds
Substance: ATR (ATM- and Rad3-related), endogenous in HT29 cells (from UniProt Q13535 1-2644)
